The other results are listed elsewhere or left out.
Molecular target: MDM2_Q00987_77_QQHIVYCSNDLLGDLFGVPSFSVK (UniProt Q00987)
Test: probe-labelled cysteine peptide fold change vs DMSO (competition) (log2 fold change); higher = less target engagement (more negative = stronger competition)
Conditions: THP-1, incubation time: 4 h
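Note: competitive profiling in live THP-1 cells: cysteine peptides tagged with an iodoacetamide desthiobiotin (IA-DTB) probe, intensity after compound treatment relative to DMSO-treated cells.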

Chains of the proteins cited; added tags and fusions are not shown.
UniProt Q00987, whole entry, looked up: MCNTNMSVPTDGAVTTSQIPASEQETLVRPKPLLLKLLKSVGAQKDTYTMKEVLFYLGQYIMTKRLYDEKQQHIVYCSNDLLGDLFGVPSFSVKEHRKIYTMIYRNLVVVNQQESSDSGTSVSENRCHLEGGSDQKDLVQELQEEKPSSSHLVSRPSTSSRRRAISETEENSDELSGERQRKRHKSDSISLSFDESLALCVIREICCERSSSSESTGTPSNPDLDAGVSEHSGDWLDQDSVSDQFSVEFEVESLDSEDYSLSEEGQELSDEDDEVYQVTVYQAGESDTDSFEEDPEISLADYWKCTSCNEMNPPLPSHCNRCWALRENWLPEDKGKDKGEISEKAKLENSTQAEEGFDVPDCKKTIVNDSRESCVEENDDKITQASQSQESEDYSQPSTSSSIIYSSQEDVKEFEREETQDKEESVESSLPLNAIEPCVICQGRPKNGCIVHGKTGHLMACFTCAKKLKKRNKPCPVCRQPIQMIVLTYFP

Cc1cc(C(=O)N2CCCN(C(=O)CCl)CC2)ccc1-c1ccccc1 [compound 10] was tested, and the “probe-labelled cysteine peptide fold change” value (10 µM) was 0.4 and the “probe-labelled cysteine peptide fold change” value (50 µM) was 0.0775.
